# Library screen at single concentrations

Mtb cholesterol medium: 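Phenotypic screen: M. tuberculosis growth, cholesterol and DPPC medium, 4 days; the read-out is not stated. Tested at 50 µM. The record gives no direction; compounds that gave an IC50 in retests scored well above the rest, so higher reads as more growth inhibition. Of about 69,000 compounds tested this way, about 370 (0.54%) reached 50% or more in at least one test.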
Mtb glucose medium: 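Growth of Mycobacterium tuberculosis over 3 days (7H9 medium with glucose and tyloxapol); the read-out is not stated. Tested at 50 µM. The record gives no direction; compounds that gave an IC50 in retests scored well above the rest, so higher reads as more growth inhibition. Size under these conditions: about 69,000 compounds, about 760 of them at 50% or above in at least one test.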

Each number is a percent effect as filed.
The controls that fix the scale are not given in the record; negative values are as filed.
Compounds were drawn at random from those tested, without regard to their results.
Two or more numbers in one place are separate tests of the same structure; such repeats can differ widely.

* Cn1nc(CNC(=O)c2cccc(C(F)(F)F)c2)c2c1CCOC2 | Mtb cholesterol medium: 5.74%; Mtb glucose medium: 29.91%
* COc1cccc2c1ccn2CCNC(=O)C(C)C | Mtb cholesterol medium: 13.6%; Mtb glucose medium: 21.49%
* CC1CCC(NS(=O)(=O)CC(=O)NC2(C(N)=O)CCCC2)CC1 (stereo unspecified) | Mtb cholesterol medium: -26.63%; Mtb glucose medium: 23.98%
* CN(C)C(=O)N1CCN(Cc2nnc(C(C)(C)C)o2)CC1 | Mtb cholesterol medium: 9.029%; Mtb glucose medium: 6.816%
* O=C(Cc1cccnc1)N1CCC2(CC1)CCN(C1CCOC1)C2.O=C(O)C(F)(F)F.O=C(O)C(F)(F)F (stereo unspecified) | Mtb cholesterol medium: 1.823%; Mtb glucose medium: 10.11% and 0.4787%
* CCN(CC)C(CNC(=O)c1ccnc(N(C)C)c1)c1ccsc1 (stereo unspecified) | Mtb cholesterol medium: -18.71%; Mtb glucose medium: 13.41%
* CCc1ocnc1C(=O)N1CCCC1c1noc(C(C)C)n1 (stereo unspecified) | Mtb cholesterol medium: 5.12%; Mtb glucose medium: 16.07%
* CCCC(C)NCc1cnc(-c2cccc(C)c2)nc1 (stereo unspecified) | Mtb cholesterol medium: 25.99%; Mtb glucose medium: 30.11%
* [H][C@@]12CS(=O)(=O)C[C@]1([H])N(C(=O)c1ccc(C)cc1F)CCN2CCOC | Mtb cholesterol medium: -8.196%; Mtb glucose medium: 3.712%
* COc1ccc(-c2cc(C(=O)NCCCn3ccnc3C)n(C)n2)cc1 | Mtb cholesterol medium: 9.368%; Mtb glucose medium: -2.015%
* CCN(Cc1cccc(C)c1)Cn1nc(C)c2c(C)onc2c1=O | Mtb cholesterol medium: -6.537%; Mtb glucose medium: -5.158%
* CC1CCCN(Cc2c(C3CC3)n(CC(=O)N(C)C)c3ncccc23)C1.Cl (stereo unspecified) | Mtb cholesterol medium: -50.05%; Mtb glucose medium: -25.32%
* CCNC(c1cccnc1)c1ccc(F)c(C)c1 (stereo unspecified) | Mtb cholesterol medium: -6.835%; Mtb glucose medium: 4.17%
* O=C(Nc1cccc(OCc2ccc(F)cc2)c1)C1COCCO1 (stereo unspecified) | Mtb cholesterol medium: 18.02%; Mtb glucose medium: 21.75%
* CNC(=O)C1Cc2ccccc2CN1CCc1cccs1 (stereo unspecified) | Mtb cholesterol medium: -25.76%; Mtb glucose medium: -14.06%
* [H][C@]12CNC[C@@]1(C(=O)NCC1(COC)CC1)CN(C1CCCC1)C2 | Mtb cholesterol medium: -12.16%; Mtb glucose medium: 0.5126%
* O=c1cc(CSc2nnc[nH]2)nc2sc3c(n12)CCCC3 | Mtb cholesterol medium: -13.37%; Mtb glucose medium: -10.06%
* Cc1cnc(C(=O)NC(COCC(C)C)c2ccco2)cn1 (stereo unspecified) | Mtb cholesterol medium: 8.925%; Mtb glucose medium: 0.9296%
* O=C1CN(Cc2cnc3c(-c4ccccc4)cnn3c2)CCCN1 | Mtb cholesterol medium: 12.48%; Mtb glucose medium: -2.928% and 5.363%
* Cc1cc(N2CCCC2c2nnc3n2CCCCC3)nc(C)n1 (stereo unspecified) | Mtb cholesterol medium: -4.888%; Mtb glucose medium: 1.56%
* COc1cc(F)ccc1-c1cc(N)ccn1 | Mtb cholesterol medium: 0.4524%; Mtb glucose medium: -11.75% and -5.089%
* Cc1c(C(=O)N2CCCC(n3cccn3)C2)nnn1-c1ccccc1 (stereo unspecified) | Mtb cholesterol medium: -3.712%; Mtb glucose medium: -18.86%
* CCOc1cccc2c1OCC(C(=O)NS(=O)(=O)c1ccc(C)s1)=C2 | Mtb cholesterol medium: -5.483%; Mtb glucose medium: 8.559%
* CCOc1ccc2nc(NC(=O)c3c(C(=O)O)cnn3C)sc2c1 | Mtb cholesterol medium: 20.17%; Mtb glucose medium: 20.19%
* CN(C(=O)Cn1nc(-c2ccc(Br)cc2)ccc1=O)C1CCS(=O)(=O)C1 (stereo unspecified) | Mtb cholesterol medium: -2.227%; Mtb glucose medium: -14.06%
* COc1ccc(OC2CCN(C(=O)[C@@H](N)Cc3c[nH]cn3)CC2)cc1 | Mtb cholesterol medium: 1.982%; Mtb glucose medium: 3.676%
* C[C@H]1CN(CC2CCOCC2)C[C@@]12CCN(Cc1cccnc1)C2=O.O=C(O)C(F)(F)F.O=C(O)C(F)(F)F | Mtb cholesterol medium: -8.742% and 2.126%; Mtb glucose medium: 6.044%
* Clc1cc(Cl)cc(CN2CCC(NCc3ncc[nH]3)CC2)c1 | Mtb cholesterol medium: 16.85%; Mtb glucose medium: 34.16%
* Cc1cc(C(=O)O)cc(S(=O)(=O)Nc2ccc3c(c2)OCO3)c1C | Mtb cholesterol medium: -16.73%; Mtb glucose medium: -39.18%
* CN(C)C(=O)c1ccn(-c2ccc3ccccn23)n1 | Mtb cholesterol medium: 2.585%; Mtb glucose medium: 1.368% and -7.406%
* N#Cc1ccc(CNC(=O)NC2CCCN(c3ncccn3)C2)cc1 (stereo unspecified) | Mtb cholesterol medium: -6.704%; Mtb glucose medium: -4.689%
* O=C(O)C(F)(F)F.[H][C@@]12CCN(c3ncccn3)[C@]1([H])CC[C@H](C(=O)NCc1ccco1)O2 | Mtb cholesterol medium: -31.95%; Mtb glucose medium: -10.53%
* Cn1cc(CNC2CCCOc3c2ccc2ccccc32)cn1 (stereo unspecified) | Mtb cholesterol medium: 8.058%; Mtb glucose medium: -20.94% and 10.96%
* CC(=O)Nc1nc(C(=O)NCCOc2ccc(C)cc2)cs1 | Mtb cholesterol medium: 48.81% and 2.153%; Mtb glucose medium: -24.19%
* Cn1cc(NC(=O)NC2CCCN(c3ccccc3Cl)C2=O)cn1 (stereo unspecified) | Mtb cholesterol medium: -4.397%; Mtb glucose medium: -11.7%

The first 3 entries again:

| SMILES | Mtb cholesterol medium | Mtb glucose medium |
|---|---|---|
| `Cn1nc(CNC(=O)c2cccc(C(F)(F)F)c2)c2c1CCOC2` | 5.74 | 29.91 |
| `COc1cccc2c1ccn2CCNC(=O)C(C)C` | 13.6 | 21.49 |
| `CC1CCC(NS(=O)(=O)CC(=O)NC2(C(N)=O)CCCC2)CC1` (stereo unspecified) | -26.63 | 23.98 |

Data taken from ChEMBL document CHEMBL3988442, “University of Dundee, Small-Polar-MMV Screening Library” (2021).